PubChem BioAssay AID652272, Drosophila RNAi Screening Center | 2013
In all, the deposit lists about 21,000 reagents; shown is an unselected part of those with a known target gene and a result. Of all reagents, 503 (2.4%) were called active. 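Raw plate light values, not normalised; calls rest on replicate z-scores that were not deposited; hits include reporter decreases as well as increases.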 The numbers tell different reagents against one gene apart. A plus sign joins genes that one reagent is predicted to hit. Not stated in the record: the amount of reagent, the time to read-out.

- Screen: 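Genes whose knock-down decreases or increases Hedgehog reporter output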 (primary screen)
- Cells: Drosophila clone 8 (Cl8) cells
- Knock-down reagent: long dsRNA against Drosophila genes
- Read-out: 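Plate reader light from a firefly reporter under a ptc promoter fragment that responds to Hedgehog, with Renilla light as transfection reference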
- Direction: firefly Hh reporter signal: higher = more ptc reporter light; Renilla reference signal: higher = more Renilla control light
- Hit rule: 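Hit when the z-score averaged over two replicates is under -2 or over +3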
- Meaning of the calls: active = hit: reporter lowered or raised; inactive = not a hit

| Gene | reagent no. | firefly Hh reporter signal, replicate 1 | firefly Hh reporter signal, replicate 2 | firefly Hh reporter signal, replicate 3 | Renilla reference signal, replicate 1 | Renilla reference signal, replicate 2 | outcome |
| --- | --- | --- | --- | --- | --- | --- | --- |
| BicC (Bicaudal C) | 1 | 82194 | 50642 | – | 2194 | 5334 | inactive |
| Pez | 1 | 1.33e5 | 50817 | – | 3445 | 5389 | inactive |
| Eig71Eh | 1 | 1.70e5 | – | – | 6169 | 5236 | inactive |
| peg (pegasus) | 1 | 8.02e5 | 1.19e5 | – | 32006 | 2722 | inactive |
| CG17202 | 1 | 83252 | 96345 | – | 2320 | 14388 | inactive |
| Mcr (Macroglobulin complement-related) | 1 | 99187 | 33404 | – | 4144 | 1091 | inactive |
| CG31121 | 1 | 5.28e5 | 1.21e5 | – | 27600 | 3464 | inactive |
| CG31121 | 2 | 6.15e5 | 1.01e5 | – | 31360 | 3481 | inactive |
| CG34176 | 1 | 1.20e5 | 79972 | – | 3474 | 6888 | inactive |
| MED31 (Mediator complex subunit 31) | 1 | 91812 | 64816 | – | 3346 | 1895 | inactive |
| Rcd2 (Reduction in Cnn dots 2) | 1 | 1.25e5 | 87861 | – | 4070 | 2470 | inactive |
| tex | 1 | 60880 | 76995 | – | 1882 | 2313 | inactive |
| tobi (target of brain insulin) | 1 | 5.21e5 | 76997 | – | 33536 | 2000 | inactive |
| CG13937 | 1 | 6.17e5 | 1.20e5 | – | 5509 | 5509 | inactive |
| Cpr49Ae (Cuticular protein 49Ae) | 1 | 73617 | 65635 | – | 3509 | 3120 | inactive |
| CG2818 | 1 | 93560 | 1.21e5 | – | 3520 | 5408 | inactive |
| CG14339 | 1 | 1.01e5 | 1.01e5 | – | 2985 | 2544 | inactive |
| CG3588 | 1 | 1.03e5 | 2.67e5 | – | 4028 | 8621 | inactive |
| Dys + snoRNA:Me18S-A1374 | 1 | 5.32e5 | 1.00e5 | – | 36407 | 2358 | inactive |
| Ccp84Af | 1 | 78417 | 75725 | – | 2544 | 2345 | inactive |
| b6 | 1 | 74518 | 1.64e5 | – | 1779 | 6617 | inactive |
| dpr9 (defective proboscis extension response 9) | 1 | 1.25e5 | 89880 | – | 4794 | 3490 | inactive |
| dpr9 (defective proboscis extension response 9) | 2 | 61701 | 69212 | – | 1367 | 1821 | inactive |
| dpr9 (defective proboscis extension response 9) | 3 | 73440 | 64887 | – | 2151 | 1828 | inactive |
| Spf30 (Splicing factor 30) | 1 | 66572 | 1.11e5 | – | 2224 | 2897 | inactive |
| bcn92 | 1 | 1.15e5 | 3.16e5 | – | 4440 | 11116 | inactive |
| CG2871 | 1 | 1.15e5 | 8.14e5 | 3.15e5 | 3094 | 5874 | inactive |
| nito (spenito) | 1 | 46218 | 32379 | – | 2378 | 1504 | inactive |
| Cp190 (Centrosomal protein 190kD) | 1 | 80613 | 98840 | – | 3072 | 3865 | inactive |
| uncNacbeta | 1 | 1.12e5 | 1.19e5 | – | 2265 | 2691 | inactive |
| Lcp65Aa | 1 | 46016 | 50674 | – | 5461 | 4072 | inactive |
| Dyrk2 (Dual-specificity tyrosine phosphorylation-regulated kinase 2) | 1 | 61265 | 96152 | – | 3104 | 3850 | inactive |
| B4 | 1 | 70176 | 83757 | – | 3080 | 2928 | inactive |
| B4 | 2 | 1.18e5 | 62630 | – | 3206 | 5734 | inactive |
| Mocs2A + Mocs2B | 1 | 4.67e5 | 93784 | – | 3931 | 3931 | inactive |
| Mocs2A + Mocs2B | 2 | 5.91e5 | 98307 | – | 30989 | 2896 | inactive |

A portion of the results above:
| Gene | reagent no. | firefly Hh reporter signal, replicate 1 | firefly Hh reporter signal, replicate 2 | firefly Hh reporter signal, replicate 3 | Renilla reference signal, replicate 1 | Renilla reference signal, replicate 2 | outcome |
| --- | --- | --- | --- | --- | --- | --- | --- |
| CG13937 | 1 | 6.17e5 | 1.20e5 | – | 5509 | 5509 | inactive |
| Cpr49Ae (Cuticular protein 49Ae) | 1 | 73617 | 65635 | – | 3509 | 3120 | inactive |
| CG2818 | 1 | 93560 | 1.21e5 | – | 3520 | 5408 | inactive |
| CG14339 | 1 | 1.01e5 | 1.01e5 | – | 2985 | 2544 | inactive |
| CG3588 | 1 | 1.03e5 | 2.67e5 | – | 4028 | 8621 | inactive |
| Dys + snoRNA:Me18S-A1374 | 1 | 5.32e5 | 1.00e5 | – | 36407 | 2358 | inactive |

The listing continues.
| Gene | reagent no. | firefly Hh reporter signal, replicate 1 | firefly Hh reporter signal, replicate 2 | firefly Hh reporter signal, replicate 3 | Renilla reference signal, replicate 1 | Renilla reference signal, replicate 2 | outcome |
| --- | --- | --- | --- | --- | --- | --- | --- |
| CG6293 | 1 | 1.42e5 | 87256 | – | 5426 | 3616 | inactive |
| upd1 (unpaired 1) | 1 | 91692 | 3.59e5 | – | 2370 | 14802 | inactive |
| CG17752 | 1 | 7.49e5 | 1.74e5 | – | 38042 | 5015 | inactive |
| CAH14 (Carbonic anhydrase 14) | 1 | 1.46e5 | 87675 | – | 3968 | 7393 | inactive |
| CG31807 | 1 | 1.05e5 | 4.10e5 | – | 2634 | 16237 | inactive |
| CG4259 | 1 | 75318 | 73937 | – | 2080 | 1688 | inactive |
| Rpe (Ribulose-5-phosphate-3-epimerase) | 1 | 90500 | 62266 | – | 3508 | 2427 | inactive |
| CG11755 | 1 | 87769 | 1.43e5 | – | 2236 | 4384 | inactive |
| CG4586 | 1 | 1.05e5 | 1.05e5 | – | 2493 | 2704 | inactive |
| Manf (Mesencephalic astrocyte-derived neurotrophic factor) | 1 | 1.22e5 | 1.06e5 | – | 5168 | 4497 | inactive |
| CG34225 | 1 | 1.02e5 | 2.42e5 | – | 3276 | 10564 | inactive |
| CG14995 | 1 | 36956 | 35536 | – | 2699 | 1670 | inactive |
| pigs (pickled eggs) | 1 | 4.77e5 | 2.34e5 | – | 26836 | 5323 | inactive |
| pigs (pickled eggs) | 2 | 60466 | 1.85e5 | – | 2642 | 7532 | inactive |
| pigs (pickled eggs) | 3 | 65291 | 2.03e5 | – | 2615 | 8872 | inactive |
| Ranbp16 | 1 | 84497 | 2.23e5 | – | 1730 | 9740 | inactive |
| mei-W68 (meiotic W68) | 1 | 58251 | 67414 | – | 1467 | 4317 | inactive |
| CG32081 | 1 | 51043 | 43680 | 55397 | 3846 | 4821 | inactive |
| Nepl19 (Neprilysin-like 19) | 1 | 5.04e5 | 77946 | – | 3159 | 3159 | inactive |
| Prx1 (Peroxiredoxin 1) | 1 | 81491 | – | – | 2897 | 2141 | inactive |
| rgn (regeneration) | 1 | 98739 | 82076 | – | 4265 | 2994 | inactive |
| CG10466 | 1 | 83801 | 62999 | – | 2082 | 6771 | inactive |
| CG3062 | 1 | 77925 | 1.54e5 | – | 2768 | 6373 | inactive |
| CG9663 | 1 | 91553 | 59574 | – | 4472 | 2683 | inactive |
| ana1 (anastral spindle 1) | 1 | 1.93e5 | 1.50e5 | – | 6449 | 6064 | inactive |
| CG31099 | 1 | 5.22e5 | 1.08e5 | – | 25649 | 3341 | inactive |
| muskelin | 1 | 1.10e5 | 92213 | – | 2695 | 5495 | inactive |
| Gasp | 1 | 1.33e5 | 74496 | – | 4784 | 2888 | inactive |
| CG1143 | 1 | 52633 | 42439 | – | 1949 | 3869 | inactive |
| CG14573 | 1 | 1.16e5 | 1.00e5 | – | 4036 | 5417 | inactive |
| cDIP (Common Dpr-interacting protein) | 1 | 84293 | 67270 | – | 3190 | 2658 | inactive |
| ppk19 (pickpocket 19) | 1 | 78384 | 1.04e5 | – | 3180 | 2960 | inactive |
| CG43737 | 1 | 89777 | 2.28e5 | – | 3235 | 8140 | inactive |
| CG43737 | 2 | 84944 | 2.67e5 | – | 3239 | 9780 | inactive |
| CG8281 | 1 | 54033 | 83383 | – | 2148 | 6056 | inactive |
| Adf1 (Adh transcription factor 1) | 1 | 1.84e5 | 3.29e5 | – | 3896 | 11436 | inactive |
| Adf1 (Adh transcription factor 1) | 2 | 1.18e5 | 68555 | – | 4118 | 2288 | inactive |
